Assay results as given in paper doi:10.1101/2024.06.26.600905 (bioRxiv, 2024).
These are yes or no findings as the source states them, for the method shown. For some of these results: In cells and extracts the contact can be indirect. Some entries that bind do so weakly or less than the wild type. For some of these results: Where a sequence is shown, tags or fusion partners need not be part of it.

Amino acid sequences for entries named in this document (tags omitted). A change or cut given only in a name is not applied to a line headed by its entry.
UniProt Q96J92: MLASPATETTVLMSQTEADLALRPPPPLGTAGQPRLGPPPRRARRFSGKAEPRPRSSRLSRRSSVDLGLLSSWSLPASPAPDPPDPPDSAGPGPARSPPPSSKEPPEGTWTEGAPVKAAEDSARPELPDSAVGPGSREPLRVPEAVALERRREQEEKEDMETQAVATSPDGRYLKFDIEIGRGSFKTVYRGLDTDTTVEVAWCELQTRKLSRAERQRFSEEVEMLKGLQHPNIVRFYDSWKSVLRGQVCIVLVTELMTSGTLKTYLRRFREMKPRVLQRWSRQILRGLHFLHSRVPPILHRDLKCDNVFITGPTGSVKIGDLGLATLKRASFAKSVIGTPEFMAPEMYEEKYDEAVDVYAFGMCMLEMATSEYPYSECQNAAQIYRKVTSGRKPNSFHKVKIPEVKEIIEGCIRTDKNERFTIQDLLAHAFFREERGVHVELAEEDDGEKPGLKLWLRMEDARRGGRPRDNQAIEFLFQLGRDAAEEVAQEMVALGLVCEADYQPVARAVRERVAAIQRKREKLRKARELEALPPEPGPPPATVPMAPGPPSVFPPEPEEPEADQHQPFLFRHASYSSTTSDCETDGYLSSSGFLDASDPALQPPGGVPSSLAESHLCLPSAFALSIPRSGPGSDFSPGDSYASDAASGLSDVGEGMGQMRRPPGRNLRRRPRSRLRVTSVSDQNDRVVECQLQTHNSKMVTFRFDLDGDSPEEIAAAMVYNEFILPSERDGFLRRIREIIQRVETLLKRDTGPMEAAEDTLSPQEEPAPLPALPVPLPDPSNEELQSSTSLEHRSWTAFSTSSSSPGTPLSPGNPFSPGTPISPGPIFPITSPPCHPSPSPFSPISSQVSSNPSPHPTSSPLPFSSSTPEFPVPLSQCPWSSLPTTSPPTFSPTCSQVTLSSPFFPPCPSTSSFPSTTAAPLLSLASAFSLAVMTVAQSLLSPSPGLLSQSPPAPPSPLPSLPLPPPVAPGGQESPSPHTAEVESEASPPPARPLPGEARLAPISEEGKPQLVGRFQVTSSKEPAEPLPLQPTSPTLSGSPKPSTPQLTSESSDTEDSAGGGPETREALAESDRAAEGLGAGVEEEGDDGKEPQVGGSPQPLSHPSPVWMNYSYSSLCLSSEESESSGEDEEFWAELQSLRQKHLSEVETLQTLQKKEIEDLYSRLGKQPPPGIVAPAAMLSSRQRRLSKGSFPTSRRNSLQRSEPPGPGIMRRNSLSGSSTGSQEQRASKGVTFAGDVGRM
UniProt Q9UHY1: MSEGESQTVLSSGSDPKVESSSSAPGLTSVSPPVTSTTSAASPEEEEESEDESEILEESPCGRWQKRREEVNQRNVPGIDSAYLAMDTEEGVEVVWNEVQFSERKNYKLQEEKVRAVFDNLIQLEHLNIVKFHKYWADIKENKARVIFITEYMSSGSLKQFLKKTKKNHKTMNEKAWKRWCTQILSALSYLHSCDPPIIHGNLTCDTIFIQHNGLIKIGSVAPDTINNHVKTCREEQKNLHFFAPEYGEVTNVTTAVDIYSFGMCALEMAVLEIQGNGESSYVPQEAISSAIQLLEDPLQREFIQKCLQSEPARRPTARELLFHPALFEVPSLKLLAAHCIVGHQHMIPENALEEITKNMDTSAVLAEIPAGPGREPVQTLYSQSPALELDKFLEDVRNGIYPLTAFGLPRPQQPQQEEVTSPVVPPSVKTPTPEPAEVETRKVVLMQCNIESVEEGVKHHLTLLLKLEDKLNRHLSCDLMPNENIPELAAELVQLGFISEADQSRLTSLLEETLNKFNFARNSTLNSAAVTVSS
UniProt O95747: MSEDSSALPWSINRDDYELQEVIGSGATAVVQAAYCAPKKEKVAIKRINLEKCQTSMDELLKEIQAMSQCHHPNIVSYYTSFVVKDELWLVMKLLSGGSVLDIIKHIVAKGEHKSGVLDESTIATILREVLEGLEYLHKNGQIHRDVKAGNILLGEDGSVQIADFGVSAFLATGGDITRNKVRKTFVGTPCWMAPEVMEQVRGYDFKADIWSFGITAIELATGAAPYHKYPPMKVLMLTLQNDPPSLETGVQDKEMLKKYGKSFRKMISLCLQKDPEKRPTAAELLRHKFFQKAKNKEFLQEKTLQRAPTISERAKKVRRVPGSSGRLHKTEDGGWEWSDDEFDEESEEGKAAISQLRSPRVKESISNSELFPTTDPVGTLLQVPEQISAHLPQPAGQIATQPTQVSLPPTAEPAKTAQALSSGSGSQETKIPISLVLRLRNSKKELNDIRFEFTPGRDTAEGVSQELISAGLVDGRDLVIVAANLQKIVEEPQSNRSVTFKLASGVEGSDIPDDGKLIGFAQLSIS

Tests used:
[1] = molecular target: T1, hWNK4 1012-1024 peptide with threonine at the -1 position, on the peptide array membrane (human) (UniProt Q96J92); test: peptide or protein array
T1 sequence (peptide, N-terminal acetyl; C-terminus coupled to the TOTD membrane): QLVGTFQVTSSKE

[2] = molecular target: T2, hWNK4 1012-1024 wild type peptide … on the peptide array membrane (human); test: peptide or protein array
T2 sequence (peptide, N-terminal acetyl; C-terminus coupled to the TOTD membrane): QLVGRFQVTSSKE

endogenous ATG9A = molecular target: T3, endogenous ATG9A (UniProt Q7Z3C6); test: co-IP
T3 sequence: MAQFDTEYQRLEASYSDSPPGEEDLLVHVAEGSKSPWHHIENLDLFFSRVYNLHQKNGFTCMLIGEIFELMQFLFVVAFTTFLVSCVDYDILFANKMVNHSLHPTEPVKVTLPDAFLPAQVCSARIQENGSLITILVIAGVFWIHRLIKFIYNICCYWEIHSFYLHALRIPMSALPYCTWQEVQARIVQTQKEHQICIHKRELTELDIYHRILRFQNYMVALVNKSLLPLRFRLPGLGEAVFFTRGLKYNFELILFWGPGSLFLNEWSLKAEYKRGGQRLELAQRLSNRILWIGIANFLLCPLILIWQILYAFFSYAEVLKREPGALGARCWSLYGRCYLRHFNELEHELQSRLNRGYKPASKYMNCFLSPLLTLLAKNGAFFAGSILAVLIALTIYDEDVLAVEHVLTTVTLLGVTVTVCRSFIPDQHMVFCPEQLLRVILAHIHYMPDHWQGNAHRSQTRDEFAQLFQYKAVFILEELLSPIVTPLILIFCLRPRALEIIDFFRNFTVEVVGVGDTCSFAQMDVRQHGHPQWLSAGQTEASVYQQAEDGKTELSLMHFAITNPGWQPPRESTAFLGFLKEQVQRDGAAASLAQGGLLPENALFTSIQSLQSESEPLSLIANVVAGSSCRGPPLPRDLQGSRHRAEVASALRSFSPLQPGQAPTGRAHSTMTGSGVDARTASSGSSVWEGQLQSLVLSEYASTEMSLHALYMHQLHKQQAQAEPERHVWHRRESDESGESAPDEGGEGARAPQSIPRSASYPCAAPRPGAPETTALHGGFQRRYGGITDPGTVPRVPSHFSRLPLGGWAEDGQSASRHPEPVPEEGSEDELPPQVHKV

3xFLAG-NRBP1 E488Q = 3xFLAG-NRBP1 E488Q (UniProt Q9UHY1); test: co-IP
3xFLAG-NRBP1 = 3xFLAG-NRBP1 (UniProt Q9UHY1); test: co-IP
3xFLAG-OSR1 = 3xFLAG-OSR1 (UniProt O95747); test: co-IP
[3] = molecular target: His6-OSR1 CCT (human OSR1 433-527) (human, UniProt O95747 433-527); test: fluorescence polarisation

His6-OSR1 CCT (human OSR1 433-527) (from UniProt O95747 433-527) (domain or fragment)
binding [1]: no binding (tested: 300 µM)

His6-SPAK CCT (residues 449-545) (from UniProt Q9UEW8 449-545) (domain or fragment)
binding [2]: binds | binding [1]: no binding (tested: 300 µM)

OSR1 (work not yet published) (from UniProt O95747 1-527)
binding (endogenous ATG9A): binds

B1: myc-TSC22D1 (protein, UniProt Q15714 1-1073)
chain: MHQPPESTAAAAAAADISARKMAHPAMFPRRGSGSGSASALNAAGTGVGSNATSSEDFPPPSLLQPPPPAASSTSGPQPPPPQSLNLLSQAQLQAQPLAPGGTQMKKKSGFQITSVTPAQISASISSNNSIAEDTESYDDLDESHTEDLSSSEILDVSLSRATDLGEPERSSSEETLNNFQEAETPGAVSPNQPHLPQPHLPHLPQQNVVINGNAHPHHLHHHHQIHHGHHLQHGHHHPSHVAVASASITGGPPSSPVSRKLSTTGSSDSITPVAPTSAVSSSGSPASVMTNMRAPSTTGGIGINSVTGTSTVNNVNITAVGSFNPNVTSSMLGNVNISTSNIPSAAGVSVGPGVTSGVNVNILSGMGNGTISSSAAVSSVPNAAAGMTGGSVSSQQQQPTVNTSRFRVVKLDSSSEPFKKGRWTCTEFYEKENAVPATEGVLINKVVETVKQNPIEVTSERESTSGSSVSSSVSTLSHYTESVGSGEMGAPTVVVQQQQQQQQQQQQQPALQGVTLQQMDFGSTGPQSIPAVSIPQSISQSQISQVQLQSQELSYQQKQGLQPVPLQATMSAATGIQPSPVNVVGVTSALGQQPSISSLAQPQLPYSQAAPPVQTPLPGAPPPQQLQYGQQQPMVSTQMAPGHVKSVTQNPASEYVQQQPILQTAMSSGQPSSAGVGAGTTVIPVAQPQGIQLPVQPTAVPAQPAGASVQPVGQAPAAVSAVPTGSQIANIGQQANIPTAVQQPSTQVPPSVIQQGAPPSSQVVPPAQTGIIHQGVQTSAPSLPQQLVIASQSSLLTVPPQPQGVEPVAQGIVSQQLPAVSSLPSASSISVTSQVSSTGPSGMPSAPTNLVPPQNIAQTPATQNGNLVQSVSQPPLIATNTNLPLAQQIPLSSTQFSAQSLAQAIGSQIEDARRAAEPSLVGLPQTISGDSGGMSAVSDGSSSSLAASASLFPLKVLPLTTPLVDGEDESSSGASVVAIDNKIEQAMDLVKSHLMYAVREEVEVLKEQIKELIEKNSQLEQENNLLKTLASPEQLAQFQAQLQTGSPPATTQPQGTTQPPAQPASQGSGPTA
binding (3xFLAG-NRBP1 E488Q): binds | binding (3xFLAG-NRBP1): binds

B2: endogenous TSC22D1 (protein, UniProt Q15714 1-1073)
chain: B1 chain
binding (3xFLAG-OSR1): binds

B3: hWNK1 1253-1265 wild type peptide NH3+-…-COO- (peptide)
peptide: SAGRRFIVSPVPE
binding (3xFLAG-OSR1): binds

B4: hWNK4 1012-1024 peptide, -1 arginine to lysine (peptide, UniProt Q96J92 1012-1024)
peptide: QLVGKFQVTSSKE
binding [3]: no binding

B5: hWNK4 1012-1024 peptide, -1 arginine to threonine (peptide, UniProt Q96J92 1012-1024)
peptide: QLVGTFQVTSSKE
binding [3]: no binding
